Test results: the supplement of paper PMC11659162
This is one part of the list. Single values of this set are uncertain.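 The cells are a human neuroglioma line carrying a green fluorescent autophagy reporter.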

How the values were obtained:
H4 GFP-LC3 [1] = experiment: cell viability (scaled to control) (fraction of control); higher = more viable cells; conditions: 5 µM
H4 GFP-LC3 [2] = experiment: ACBP immunofluorescence intensity (scaled to control) (AU (scaled)); higher = more intracellular ACBP/DBI; conditions: 5 µM

SMILES | cell viability (H4 GFP-LC3 [1]; 6 h) | cell viability (H4 GFP-LC3 [1]; 24 h) | ACBP immunofluorescence intensity (H4 GFP-LC3 [2]; 6 h) | ACBP immunofluorescence intensity (H4 GFP-LC3 [2]; 24 h)
CNCCc1cnc[nH]1 | 1.09 | 1.06 | 0.898 | 0.753
N=C(N)NCCCCCCCCCCNC(=N)N | 1.13 | 1.16 | 0.859 | 0.471
CNCC(O)c1ccc(O)cc1 (stereo not drawn) | 1.18 | 0.88 | 0.882 | 0.889
Cn1c2c(c3ccccc31)CCNCC2 | 0.831 | 0.959 | 0.988 | 0.822
NCCCC[C@H](NC(=O)[C@H](Cc1ccccc1)NC(=O)[C@@H](CCCN=C(N)N)NC(=O)[C@@H](N)Cc1ccc(O)cc1)C(N)=O | 1.03 | 1.1 | 0.83 | 0.765
O=C1NCN(c2ccccc2)C12CCN(CCCOc1ccc(F)cc1)CC2 | 0.923 | 1.07 | 0.957 | 0.867
CCCC(=O)OCC[N+](C)(C)C | 0.902 | 1.31 | 0.997 | 0.909
CNCC/C=C/c1cccnc1 | 1.01 | 1.07 | 0.881 | 0.614
Fc1ccc(C(OCCN2CCN(C/C=C/c3ccccc3)CC2)c2ccc(F)cc2)cc1 | 0.743 | 1.1 | 0.886 | 0.495
O[C@@H]1CCCC[C@H]1N1CCC(c2ccccc2)CC1 (racemic) | 0.99 | 1.11 | 0.936 | 0.704
CN(C(=O)Cc1ccc(Cl)c(Cl)c1)[C@H](CN1CCCC1)c1cccc(N=C=S)c1 | 1.2 | 0.975 | 0.881 | 0.612
C[C@H]1CC[C@@H]2N(C1)C[C@H]1[C@@H]3C[C@H]4[C@@H](CC(=O)[C@H]5C[C@@H](O)CC[C@@]54C)[C@@H]3CC[C@H]1[C@]2(C)O | 0.765 | 0.992 | 0.993 | 0.581
CC(C)c1cccc(C(C)C)c1O | 1.03 | 1.18 | 0.831 | 0.462
Cc1nnc2ccc(-c3cccc(C(F)(F)F)c3)nn12 | 0.914 | 1.16 | 0.843 | 0.4
Oc1ccc2c3c1O[C@H]1c4[nH]c5ccccc5c4C[C@@]4(O)[C@@H](C2)N(CC2CC2)CC[C@]314 | 0.982 | 1.07 | 0.813 | 0.675
NCC(O)c1ccc(O)cc1 (stereo not drawn) | 1 | 0.98 | 0.617 | 0.704
CC(C)C[C@H](NC(=O)[C@H](Cc1ccccc1)NC(=O)CNC(=O)[C@@H](CSC(C)(C)C)NC(=O)[C@@H](N)Cc1ccc(O)cc1)C(=O)N[C@H](C(=O)OC(C)(C)C)[C@@H](C)O | 1.09 | 0.875 | 0.526 | 0.496

Part of the list above, as tab-separated lines:
SMILES	cell viability (H4 GFP-LC3 [1]; 6 h)	cell viability (H4 GFP-LC3 [1]; 24 h)	ACBP immunofluorescence intensity (H4 GFP-LC3 [2]; 6 h)	ACBP immunofluorescence intensity (H4 GFP-LC3 [2]; 24 h)
CNCC/C=C/c1cccnc1	1.01	1.07	0.881	0.614
Fc1ccc(C(OCCN2CCN(C/C=C/c3ccccc3)CC2)c2ccc(F)cc2)cc1	0.743	1.1	0.886	0.495
